Source: patent publication US20240117385A1, “ENZYMES OF LUCIFERIN BIOSYNTHESIS AND USE THEREOF” (LIGHT BIO, INC., priority 2018, published 2024)

Test system: luciferase
Test: Emission maximum of light emitted at luciferin oxidation with luciferase
Type: biochemical
Conditions: for Emission maximum: light emitted at oxidation of the luciferin

Row | Structure (SMILES) | Light emitted at oxidation, range [nm] | Emission maximum
1 | O=c1oc(/C=C/c2ccc(O)c(O)c2)cc(O)c1O [3-hydroxy hispidin, (E)-6-(3,4-dihydroxystyryl)-3,4-dihydroxy-2H-pyran-2-one] | 400 to 700 | 520-590 nm and 538 nm
2 | O=c1oc(/C=C/c2cc3c4c(c2)CCCN4CCC3)cc(O)c1O [(E)-3,4-dihydroxy-6-(2-(2,3,6,7-tetrahydro-1H,5H-pyrido[3,2,1-ij]quinolin-9-yl)vinyl)-2H-pyran-2-one] | – | 534 nm
3 | O=c1oc(/C=C/c2ccc3cc(O)ccc3c2)cc(O)c1O [(E)-3,4-dihydroxy-6-(2-(6-hydroxynaphthalen-2-yl)vinyl)-2H-pyran-2-one] | – | 564 nm
4 | O=c1oc(/C=C/c2ccc(O)cc2)cc(O)c1O [(E)-3,4-dihydroxy-6-(4-hydroxystyryl)-2H-pyran-2-one] | – | 520 nm
5 | O=c1oc(/C=C/c2c[nH]c3ccccc23)cc(O)c1O [(E)-6-(2-(1H-indol-3-yl)vinyl)-3,4-dihydroxy-2H-pyran-2-one] | – | 480 nm
6 | CCN(CC)c1ccc(/C=C/c2cc(O)c(O)c(=O)o2)cc1 [(E)-6-(4-(diethylamino)styryl)-3,4-dihydroxy-2H-pyran-2-one] | – | 504 nm

“And” between values parts separate entries of the source, which are not always exact repeats. Equal entries are not always repeated.
